# Measured values taken from the supplement of paper PMC8728848.
# The other results are listed elsewhere or left out.
# Key:
# Experiment in all cases: glycan array binding signal (z-score within array); higher = stronger binding
# Conditions in all cases: glycan notation: IUPAC condensed, linker removed
# [1] = molecular target: Gal(b1-4)GlcNAc(b1-2)Man(a1-6)[GlcNAc(b1-2)Man(a1-3)]Man(b1-4)GlcNAc(b1-4)GlcNAc
# How it was run: (§1)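 From the Consortium for Functional Glycomics database, 3228 arrays were curated, keeping only those whose protein sequence was available. Binding is given as a within-array Z-score averaged across arrays sharing a protein sequence and across linkers. Negative Z-scores can be read as non-binding.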
# [2] = molecular target: Gal(b1-4)GlcNAc(b1-2)Man(a1-6)[Man(a1-3)]Man(b1-4)GlcNAc(b1-4)GlcNAc
# How it was run: as §1
# [3] = molecular target: Gal(b1-4)GlcNAc(b1-2)[Gal(b1-4)GlcNAc(b1-4)]Man(a1-3)[Gal(b1-4)GlcNAc(b1-2)Man(a1-6)]Man(b1-4)GlcNAc(b1-4)GlcNAc
# How it was run: as §1
# [4] = molecular target: Gal(b1-4)GlcNAc(b1-2)[Gal(b1-4)GlcNAc(b1-4)]Man(a1-3)[Gal(b1-4)GlcNAc(b1-2)[Gal(b1-4)GlcNAc(b1-6)]Man(a1-6)]Man(b1-4)GlcNAc(b1-4)GlcNAc
# How it was run: as §1
# [5] = molecular target: Gal(b1-4)GlcNAc(b1-2)[Gal(b1-4)GlcNAc(b1-4)]Man(a1-3)[GlcNAc(b1-4)][Gal(b1-4)GlcNAc(b1-2)Man(a1-6)]Man(b1-4)GlcNAc(b1-4)GlcNAc
# How it was run: as §1
# [6] = molecular target: Gal(b1-4)GlcNAc(b1-2)[Gal(b1-4)GlcNAc(b1-4)]Man(a1-3)[GlcNAc(b1-4)][Gal(b1-4)GlcNAc(b1-2)[Gal(b1-4)GlcNAc(b1-6)]Man(a1-6)]Man(b1-4)GlcNAc(b1-4)GlcNAc
# How it was run: as §1
# [7] = molecular target: Gal(b1-4)GlcNAc(b1-2)[Gal(b1-4)GlcNAc(b1-6)]Man(a1-6)[Gal(b1-4)GlcNAc(b1-2)Man(a1-3)]Man(b1-4)GlcNAc(b1-4)GlcNAc
# How it was run: as §1
# [8] = molecular target: Gal(b1-4)GlcNAc(b1-2)[Gal(b1-4)GlcNAc(b1-6)]Man(a1-6)[Gal(b1-4)GlcNAc(b1-2)Man(a1-3)]Man(b1-4)GlcNAc(b1-4)[Fuc(a1-6)]GlcNAc
# How it was run: as §1
# [9] = molecular target: Gal(b1-4)GlcNAc(b1-2)[Gal(b1-4)GlcNAc(b1-6)]Man(a1-6)[GlcNAc(b1-4)][Gal(b1-4)GlcNAc(b1-2)Man(a1-3)]Man(b1-4)GlcNAc(b1-4)GlcNAc
# How it was run: as §1
# [10] = molecular target: Gal(b1-4)GlcNAc(b1-2)[Gal(b1-4)GlcNAc(b1-6)]Man(a1-6)[GlcNAc(b1-4)][Gal(b1-4)GlcNAc(b1-2)[Gal(b1-4)GlcNAc(b1-4)]Man(a1-3)]Man(b1-4)GlcNAc(b1-4)[Fuc(a1-6)]GlcNAc
# How it was run: as §1
# [11] = molecular target: Gal(b1-4)GlcNAc(b1-3)Gal(b1-3)GalNAc
# How it was run: as §1
# [12] = molecular target: Gal(b1-4)GlcNAc(b1-3)Gal(b1-3)GlcNAc
# How it was run: as §1
# [13] = molecular target: Gal(b1-4)GlcNAc(b1-3)Gal(b1-4)Glc
# How it was run: as §1
# [14] = molecular target: Gal(b1-4)GlcNAc(b1-3)Gal(b1-4)GlcNAc
# How it was run: as §1
# [15] = molecular target: Gal(b1-4)GlcNAc(b1-3)Gal(b1-4)GlcNAc(b1-2)Man(a1-3)[Gal(b1-4)GlcNAc(b1-3)Gal(b1-4)GlcNAc(b1-2)Man(a1-6)]Man(b1-4)GlcNAc(b1-4)GlcNAc
# How it was run: as §1
# [16] = molecular target: Gal(b1-4)GlcNAc(b1-3)Gal(b1-4)GlcNAc(b1-2)Man(a1-3)[Gal(b1-4)GlcNAc(b1-3)Gal(b1-4)GlcNAc(b1-2)Man(a1-6)]Man(b1-4)GlcNAc(b1-4)[Fuc(a1-6)]GlcNAc
# How it was run: as §1
# [17] = molecular target: Gal(b1-4)GlcNAc(b1-3)Gal(b1-4)GlcNAc(b1-2)[Gal(b1-4)GlcNAc(b1-3)Gal(b1-4)GlcNAc(b1-6)]Man(a1-6)[Gal(b1-4)GlcNAc(b1-3)Gal(b1-4)GlcNAc(b1-2)Man(a1-3)]Man(b1-4)GlcNAc(b1-4)GlcNAc
# How it was run: as §1
# [18] = molecular target: Gal(b1-4)GlcNAc(b1-3)Gal(b1-4)GlcNAc(b1-2)[Gal(b1-4)GlcNAc(b1-3)Gal(b1-4)GlcNAc(b1-6)]Man(a1-6)[Gal(b1-4)GlcNAc(b1-3)Gal(b1-4)GlcNAc(b1-2)Man(a1-3)]Man(b1-4)GlcNAc(b1-4)[Fuc(a1-6)]GlcNAc
# How it was run: as §1
# [19] = molecular target: Gal(b1-4)GlcNAc(b1-3)Gal(b1-4)GlcNAc(b1-3)Gal(b1-4)GlcNAc
# How it was run: as §1
# [20] = molecular target: Gal(b1-4)GlcNAc(b1-3)Gal(b1-4)GlcNAc(b1-3)Gal(b1-4)GlcNAc(b1-2)Man(a1-3)[Gal(b1-4)GlcNAc(b1-3)Gal(b1-4)GlcNAc(b1-3)Gal(b1-4)GlcNAc(b1-2)Man(a1-6)]Man(b1-4)GlcNAc(b1-4)GlcNAc
# How it was run: as §1
# [21] = molecular target: Gal(b1-4)GlcNAc(b1-3)Gal(b1-4)GlcNAc(b1-3)Gal(b1-4)GlcNAc(b1-2)Man(a1-3)[Gal(b1-4)GlcNAc(b1-3)Gal(b1-4)GlcNAc(b1-3)Gal(b1-4)GlcNAc(b1-2)Man(a1-6)]Man(b1-4)GlcNAc(b1-4)[Fuc(a1-6)]GlcNAc
# How it was run: as §1
# [22] = molecular target: Gal(b1-4)GlcNAc(b1-3)Gal(b1-4)GlcNAc(b1-3)Gal(b1-4)GlcNAc(b1-2)[Gal(b1-4)GlcNAc(b1-3)Gal(b1-4)GlcNAc(b1-3)Gal(b1-4)GlcNAc(b1-6)]Man(a1-6)[Gal(b1-4)GlcNAc(b1-3)Gal(b1-4)GlcNAc(b1-3)Gal(b1-4)GlcNAc(b1-2)Man(a1-3)]Man(b1-4)GlcNAc(b1-4)[Fuc(a1-6)]GlcNAc
# How it was run: as §1
binder,measurement,setting,value
"CD34 (Homo sapiens), P28906 (protein) MGSSHHHHHHSSGLVPRGSHMSTSLATSPTKPYTSSSPILSDIKAEIKCSGIREVKLTQGICLEQNKTSSCAEFKKDRGEGLARVLCGEEQADADAGAQVCSLLLAQSEVRPQCLLLVLANRTEISSKLQLMKKHQSDLKKLGILDFTEQDVASHQSYSQKT",glycan array binding signal (z-score),[1],-0.244
same,glycan array binding signal (z-score),[2],0.744
same,glycan array binding signal (z-score),[3],0.015
same,glycan array binding signal (z-score),[4],-1.26
same,glycan array binding signal (z-score),[5],-0.374
same,glycan array binding signal (z-score),[6],-0.897
same,glycan array binding signal (z-score),[7],-0.699
same,glycan array binding signal (z-score),[8],0.06
same,glycan array binding signal (z-score),[9],-0.361
same,glycan array binding signal (z-score),[10],-1.22
same,glycan array binding signal (z-score),[11],-0.267
same,glycan array binding signal (z-score),[12],-0.177
same,glycan array binding signal (z-score),[13],-0.408
same,glycan array binding signal (z-score),[14],-0.183
same,glycan array binding signal (z-score),[15],0.765
same,glycan array binding signal (z-score),[16],0.981
same,glycan array binding signal (z-score),[17],2.58
same,glycan array binding signal (z-score),[18],-0.94
same,glycan array binding signal (z-score),[19],-0.296
same,glycan array binding signal (z-score),[20],0.189
same,glycan array binding signal (z-score),[21],0.851
same,glycan array binding signal (z-score),[22],0.537

# Exported tab-delimited: part of the list above
binder	measurement	setting	value
CD34 (Homo sapiens), P28906 (protein) MGSSHHHHHHSSGLVPRGSHMSTSLATSPTKPYTSSSPILSDIKAEIKCSGIREVKLTQGICLEQNKTSSCAEFKKDRGEGLARVLCGEEQADADAGAQVCSLLLAQSEVRPQCLLLVLANRTEISSKLQLMKKHQSDLKKLGILDFTEQDVASHQSYSQKT	glycan array binding signal (z-score)	[3]	0.015
same	glycan array binding signal (z-score)	[18]	-0.94
